The values below come from patent US20170362317A1.

No constants are given. Whether binding was seen depends on the method and setting.

For test [1], the target named is recombinant human FGF (human). In words: ELISA, cytokine coated on plate.
For test [2], the target named is recombinant human FGF (human). In words: ELISA, plate coated with the cytokine at 2 µg/ml, FB704 in four-fold serial dilutions, HRP-labeled goat anti-human IgG, A450 [Cont'd) B]. (In an ELISA, binding on a coated surface is turned into a signal by an enzyme label.)

B1: Ag1-4-6 (fully human anti-IL6 IgG1 antibody) (antibody, V domains shown)
VH: EVQLVESGPALVKPTQTLTLTCTFSGFSLSTGGMSVSWIRQPPGKALEWLARIDWDDDKFYTPSLKTRLTISRDTSKNQVVLIMTNMDPVDTATYYCARMHIDDSNGYYSDAFHIWGQGTMVTVSS
VL: EIVLTQSPATLSVSPGERVTLSCRDSQSVSSTSLAWYQQKSGQAPRLLIYDTSNRATGIPARFSGGGSGTDFTLTISSLEPEDFAVYYCSFVSRPYPRFTFGQGTKVEIK
In the case of B1, the figures for the binding entry in test [1] and in test [2] were “no binding (tested: 2 µg/ml starting concentration)” and “no binding (tested: 2 µg/ml)”, respectively.
